At least one structure is not confirmed: it was looked up by name or label, or the drawing left a doubt.
System: Plasmodium yoelii N67
Assay: In vivo antiplasmodial activity, 4 day suppressive test in mice
Set-up: species or system Swiss albinos mice
Conditions: voacamine citrate 2.5, 5 and 10 mg/kg once daily, oral route, parasitemia on day 4

SMILES: CC=C1CN(C)C2Cc3c([nH]c4ccccc34)C(c3cc4[nH]c5c(c4cc3OC)CCN3CC4CC(CC)C3C5(C(=O)OC)C4)CC1C2C(=O)OC (stereo not shown) [Ex. 2, voacamine]
- in vivo antiplasmodial activity in the 4-day test: significant in vivo antiplasmodial activity
